In PMC11350846 (Antibiotics, 2024):

Experiment: general procedure: Fmoc solid-phase peptide synthesis; Rink amide resin (0.5 mmol/g); ethyl cyano(hydroxyimino) acetate (5 equiv) / DIC (5 equiv)
Details: whole synthesis, overall

Row | Substance | isolated yield
1 | H-Phe^1-Leu^2-Ser^3-Gly^4-IIe^5-Val^6-Gly^7-Met^8-Leu^9-D-NAL^10-Lys^11-Leu^12-Phe^13-NH2 | 24%
2 | H-Phe^1-Leu^2-Ser^3-Gly^4-IIe^5-Val^6-Gly^7-Met^8-Leu^9-D-Ala^10-Lys^11-Leu^12-Phe^13-NH2 | 81.2%
3 | H-Phe^1-Leu^2-Ser^3-Gly^4-IIe^5-Val^6-Gly^7-Met^8-Leu^9-Gly^10-Lys^11-Leu^12-Phe^13-NH2 | 37%
4 | H-Phe^1-Leu^2-Ser^3-Gly^4-IIe^5-Val^6-Gly^7-Met^8-Leu^9-D-Phe^10-Lys^11-Leu^12-Phe^13-NH2 | 76.7%
5 | H-Phe^1-Leu^2-Ser^3-Gly^4-IIe^5-Val^6-Gly^7-Met^8-Leu^9-D-Tyr^10-Lys^11-Leu^12-Phe^13-NH2 | 79%
6 | H-Phe^1-Leu^2-Ser^3-Gly^4-IIe^5-Val^6-Gly^7-Met^8-Leu^9-L-Lys^10-Lys^11-Leu^12-Phe^13-NH2 | 72%
